Test results published in the supplement of paper PMC10849652.
This is one part of the list.

Chains of the proteins cited; added tags and fusions are not shown. Lines headed by an entry give the natural chain unless they say otherwise; changes in a name come on top.
UniProt O15234, whole entry, looked up: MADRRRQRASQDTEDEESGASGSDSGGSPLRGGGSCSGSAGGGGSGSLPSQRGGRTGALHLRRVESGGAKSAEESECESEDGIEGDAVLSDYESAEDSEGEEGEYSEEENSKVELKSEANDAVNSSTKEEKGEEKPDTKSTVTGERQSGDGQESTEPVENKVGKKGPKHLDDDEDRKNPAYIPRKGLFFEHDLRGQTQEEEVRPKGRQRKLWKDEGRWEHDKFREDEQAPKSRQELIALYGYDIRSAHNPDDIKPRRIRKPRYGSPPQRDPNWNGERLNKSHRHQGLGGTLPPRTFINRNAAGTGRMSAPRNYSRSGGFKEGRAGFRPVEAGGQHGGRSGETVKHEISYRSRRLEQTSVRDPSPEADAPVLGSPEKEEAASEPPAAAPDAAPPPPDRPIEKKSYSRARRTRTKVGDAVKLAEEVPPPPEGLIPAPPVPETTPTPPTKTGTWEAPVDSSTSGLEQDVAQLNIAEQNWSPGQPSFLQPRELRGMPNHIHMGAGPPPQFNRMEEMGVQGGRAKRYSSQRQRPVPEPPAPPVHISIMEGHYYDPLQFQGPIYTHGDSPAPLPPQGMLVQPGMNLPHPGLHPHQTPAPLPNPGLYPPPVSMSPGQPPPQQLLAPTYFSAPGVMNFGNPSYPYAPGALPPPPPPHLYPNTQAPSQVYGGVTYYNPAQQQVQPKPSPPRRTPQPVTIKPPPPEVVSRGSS
UniProt P50991: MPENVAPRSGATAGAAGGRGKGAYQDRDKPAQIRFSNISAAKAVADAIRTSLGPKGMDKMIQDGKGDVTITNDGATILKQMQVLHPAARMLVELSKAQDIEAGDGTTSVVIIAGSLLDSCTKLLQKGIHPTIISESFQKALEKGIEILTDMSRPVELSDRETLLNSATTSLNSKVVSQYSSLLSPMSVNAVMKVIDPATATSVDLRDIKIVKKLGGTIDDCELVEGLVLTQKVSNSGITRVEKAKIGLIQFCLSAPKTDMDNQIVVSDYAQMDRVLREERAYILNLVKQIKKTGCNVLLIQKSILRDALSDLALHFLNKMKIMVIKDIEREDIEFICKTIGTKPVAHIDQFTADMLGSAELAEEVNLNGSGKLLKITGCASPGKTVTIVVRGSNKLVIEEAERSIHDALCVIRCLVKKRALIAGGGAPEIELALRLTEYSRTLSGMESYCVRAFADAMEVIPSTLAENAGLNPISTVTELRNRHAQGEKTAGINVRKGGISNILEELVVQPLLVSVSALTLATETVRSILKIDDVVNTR
UniProt Q6P1N0: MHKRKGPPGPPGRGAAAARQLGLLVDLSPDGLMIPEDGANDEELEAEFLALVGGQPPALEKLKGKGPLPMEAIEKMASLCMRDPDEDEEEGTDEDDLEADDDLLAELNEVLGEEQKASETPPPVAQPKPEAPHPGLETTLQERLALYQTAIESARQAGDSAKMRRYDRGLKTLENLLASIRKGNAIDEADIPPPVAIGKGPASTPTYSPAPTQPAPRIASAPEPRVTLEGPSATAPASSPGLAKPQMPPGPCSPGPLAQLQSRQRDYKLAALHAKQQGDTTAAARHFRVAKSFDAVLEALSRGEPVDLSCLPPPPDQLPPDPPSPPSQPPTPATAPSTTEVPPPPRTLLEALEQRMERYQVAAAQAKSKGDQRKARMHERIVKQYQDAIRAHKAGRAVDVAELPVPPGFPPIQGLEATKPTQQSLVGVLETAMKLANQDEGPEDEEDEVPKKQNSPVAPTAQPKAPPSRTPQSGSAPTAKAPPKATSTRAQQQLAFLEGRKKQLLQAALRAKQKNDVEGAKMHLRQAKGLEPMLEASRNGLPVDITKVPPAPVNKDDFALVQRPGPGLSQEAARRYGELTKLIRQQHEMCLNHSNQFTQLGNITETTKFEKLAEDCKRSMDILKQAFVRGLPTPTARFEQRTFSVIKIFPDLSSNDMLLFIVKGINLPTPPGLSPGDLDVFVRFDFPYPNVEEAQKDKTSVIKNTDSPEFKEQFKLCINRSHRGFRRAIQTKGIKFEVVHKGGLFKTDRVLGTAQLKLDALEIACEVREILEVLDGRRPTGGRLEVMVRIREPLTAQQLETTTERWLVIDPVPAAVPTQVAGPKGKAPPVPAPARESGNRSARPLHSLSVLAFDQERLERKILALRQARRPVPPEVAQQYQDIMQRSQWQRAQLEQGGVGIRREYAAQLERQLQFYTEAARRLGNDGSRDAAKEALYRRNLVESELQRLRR
UniProt Q96ER9: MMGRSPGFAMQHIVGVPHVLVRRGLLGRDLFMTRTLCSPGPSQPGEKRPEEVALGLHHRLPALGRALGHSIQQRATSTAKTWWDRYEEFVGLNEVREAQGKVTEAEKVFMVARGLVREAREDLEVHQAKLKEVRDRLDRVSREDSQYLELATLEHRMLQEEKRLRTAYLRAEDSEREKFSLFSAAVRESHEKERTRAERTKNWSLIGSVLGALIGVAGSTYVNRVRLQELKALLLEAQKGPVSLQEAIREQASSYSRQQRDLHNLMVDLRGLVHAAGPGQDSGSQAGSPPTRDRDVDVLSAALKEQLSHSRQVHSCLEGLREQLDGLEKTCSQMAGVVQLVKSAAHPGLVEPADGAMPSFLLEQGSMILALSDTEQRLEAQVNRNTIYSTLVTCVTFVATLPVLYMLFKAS
UniProt Q99832: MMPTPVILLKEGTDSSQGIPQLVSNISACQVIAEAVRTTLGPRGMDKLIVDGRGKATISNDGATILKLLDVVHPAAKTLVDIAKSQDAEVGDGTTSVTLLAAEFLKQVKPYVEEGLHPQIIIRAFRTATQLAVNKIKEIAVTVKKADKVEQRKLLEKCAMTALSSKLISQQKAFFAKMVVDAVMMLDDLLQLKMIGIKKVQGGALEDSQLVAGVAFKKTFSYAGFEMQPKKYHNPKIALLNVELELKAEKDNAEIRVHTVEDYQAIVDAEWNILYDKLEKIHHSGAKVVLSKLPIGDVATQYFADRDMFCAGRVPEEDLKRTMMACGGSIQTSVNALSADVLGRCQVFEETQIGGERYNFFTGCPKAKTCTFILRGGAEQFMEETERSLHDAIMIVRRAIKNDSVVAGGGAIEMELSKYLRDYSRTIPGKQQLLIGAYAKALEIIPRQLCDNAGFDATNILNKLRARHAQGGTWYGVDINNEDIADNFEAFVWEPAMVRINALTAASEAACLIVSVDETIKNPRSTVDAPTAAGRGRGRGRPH
UniProt Q567U6, whole entry, looked up: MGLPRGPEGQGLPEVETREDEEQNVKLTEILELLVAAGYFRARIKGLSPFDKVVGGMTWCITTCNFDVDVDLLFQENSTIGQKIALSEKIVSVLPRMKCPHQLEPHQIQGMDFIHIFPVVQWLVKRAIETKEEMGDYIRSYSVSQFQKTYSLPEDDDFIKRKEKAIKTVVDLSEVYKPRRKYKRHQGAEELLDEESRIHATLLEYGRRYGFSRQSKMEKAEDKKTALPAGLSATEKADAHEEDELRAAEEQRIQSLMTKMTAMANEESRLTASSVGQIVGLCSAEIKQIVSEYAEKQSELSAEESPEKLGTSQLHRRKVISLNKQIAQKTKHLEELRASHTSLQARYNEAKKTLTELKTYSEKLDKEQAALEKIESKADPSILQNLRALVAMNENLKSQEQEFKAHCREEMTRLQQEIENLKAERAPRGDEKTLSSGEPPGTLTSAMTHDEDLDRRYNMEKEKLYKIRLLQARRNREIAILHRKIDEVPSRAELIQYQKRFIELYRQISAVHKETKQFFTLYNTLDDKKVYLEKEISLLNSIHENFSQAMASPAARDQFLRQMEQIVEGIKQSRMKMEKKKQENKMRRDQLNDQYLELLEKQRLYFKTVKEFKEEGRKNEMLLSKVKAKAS
UniProt P20810: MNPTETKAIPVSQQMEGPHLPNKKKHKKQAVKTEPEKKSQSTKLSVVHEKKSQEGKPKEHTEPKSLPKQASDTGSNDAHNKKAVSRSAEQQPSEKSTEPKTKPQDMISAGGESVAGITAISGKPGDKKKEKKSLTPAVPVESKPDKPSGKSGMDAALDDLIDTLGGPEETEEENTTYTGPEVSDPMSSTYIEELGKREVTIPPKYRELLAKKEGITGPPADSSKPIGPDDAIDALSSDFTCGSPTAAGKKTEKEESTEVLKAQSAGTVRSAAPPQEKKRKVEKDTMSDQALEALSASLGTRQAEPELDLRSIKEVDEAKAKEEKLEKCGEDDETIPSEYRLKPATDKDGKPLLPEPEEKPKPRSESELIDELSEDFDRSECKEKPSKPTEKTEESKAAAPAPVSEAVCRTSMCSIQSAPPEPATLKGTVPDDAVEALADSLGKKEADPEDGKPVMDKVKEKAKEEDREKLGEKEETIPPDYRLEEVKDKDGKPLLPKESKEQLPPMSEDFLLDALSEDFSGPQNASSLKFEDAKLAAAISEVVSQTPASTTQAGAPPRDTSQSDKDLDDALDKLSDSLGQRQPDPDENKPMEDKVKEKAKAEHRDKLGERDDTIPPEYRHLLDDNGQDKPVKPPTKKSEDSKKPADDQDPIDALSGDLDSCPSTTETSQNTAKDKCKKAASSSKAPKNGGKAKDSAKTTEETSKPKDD
UniProt O60508: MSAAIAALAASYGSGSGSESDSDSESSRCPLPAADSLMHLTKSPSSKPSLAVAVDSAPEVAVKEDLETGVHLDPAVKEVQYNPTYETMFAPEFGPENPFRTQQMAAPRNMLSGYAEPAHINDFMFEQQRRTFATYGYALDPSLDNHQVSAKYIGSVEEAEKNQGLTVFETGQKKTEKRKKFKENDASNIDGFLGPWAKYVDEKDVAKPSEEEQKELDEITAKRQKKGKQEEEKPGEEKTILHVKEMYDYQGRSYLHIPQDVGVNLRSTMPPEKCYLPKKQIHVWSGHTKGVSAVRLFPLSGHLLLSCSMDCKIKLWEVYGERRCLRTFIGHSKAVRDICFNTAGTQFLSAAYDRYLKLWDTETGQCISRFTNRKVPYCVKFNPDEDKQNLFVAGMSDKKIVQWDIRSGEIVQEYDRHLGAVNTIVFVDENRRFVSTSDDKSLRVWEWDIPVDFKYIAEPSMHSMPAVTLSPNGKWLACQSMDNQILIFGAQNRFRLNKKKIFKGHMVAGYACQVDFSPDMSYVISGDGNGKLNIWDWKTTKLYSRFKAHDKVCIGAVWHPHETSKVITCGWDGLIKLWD
UniProt Q13191, whole entry, looked up: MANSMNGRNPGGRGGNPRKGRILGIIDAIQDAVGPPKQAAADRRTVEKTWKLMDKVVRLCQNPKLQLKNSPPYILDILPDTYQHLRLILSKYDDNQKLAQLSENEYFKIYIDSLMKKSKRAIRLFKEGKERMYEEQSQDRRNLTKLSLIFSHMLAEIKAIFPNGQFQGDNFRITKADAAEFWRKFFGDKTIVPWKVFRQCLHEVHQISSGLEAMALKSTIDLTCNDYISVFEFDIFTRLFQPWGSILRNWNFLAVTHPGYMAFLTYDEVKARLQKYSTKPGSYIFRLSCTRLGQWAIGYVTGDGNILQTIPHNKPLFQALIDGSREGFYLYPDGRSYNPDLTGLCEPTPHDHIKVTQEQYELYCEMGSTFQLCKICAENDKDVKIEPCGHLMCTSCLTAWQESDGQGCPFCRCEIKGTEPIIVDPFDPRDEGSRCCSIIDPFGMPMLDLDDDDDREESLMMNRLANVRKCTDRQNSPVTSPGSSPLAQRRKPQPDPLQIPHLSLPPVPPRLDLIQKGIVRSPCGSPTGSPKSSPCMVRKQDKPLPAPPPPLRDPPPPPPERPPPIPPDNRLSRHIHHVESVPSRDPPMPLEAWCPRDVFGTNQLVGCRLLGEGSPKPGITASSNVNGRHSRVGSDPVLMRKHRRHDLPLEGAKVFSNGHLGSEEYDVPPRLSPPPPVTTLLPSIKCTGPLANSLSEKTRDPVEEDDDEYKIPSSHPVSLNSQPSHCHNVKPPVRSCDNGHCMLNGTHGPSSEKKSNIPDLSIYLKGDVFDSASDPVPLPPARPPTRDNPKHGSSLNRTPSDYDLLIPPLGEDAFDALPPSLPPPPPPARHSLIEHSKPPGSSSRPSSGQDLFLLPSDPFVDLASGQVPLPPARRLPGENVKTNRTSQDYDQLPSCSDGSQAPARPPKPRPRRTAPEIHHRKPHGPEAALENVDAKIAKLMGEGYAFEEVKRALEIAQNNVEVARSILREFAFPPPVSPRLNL
UniProt Q4G0I0: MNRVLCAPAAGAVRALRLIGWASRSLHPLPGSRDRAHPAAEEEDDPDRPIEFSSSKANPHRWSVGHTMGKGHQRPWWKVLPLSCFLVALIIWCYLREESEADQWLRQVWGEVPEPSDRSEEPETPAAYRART
UniProt Q4VC31: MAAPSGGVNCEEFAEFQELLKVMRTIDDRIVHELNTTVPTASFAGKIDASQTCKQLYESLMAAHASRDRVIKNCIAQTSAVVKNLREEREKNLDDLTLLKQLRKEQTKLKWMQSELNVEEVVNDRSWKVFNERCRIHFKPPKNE
UniProt Q96NT0: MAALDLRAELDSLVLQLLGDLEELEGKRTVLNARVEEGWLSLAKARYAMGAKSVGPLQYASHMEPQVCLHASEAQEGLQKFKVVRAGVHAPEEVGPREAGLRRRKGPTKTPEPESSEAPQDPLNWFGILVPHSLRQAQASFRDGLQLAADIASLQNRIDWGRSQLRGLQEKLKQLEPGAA

Tests used:
Assay in all cases: log2 fold change, soluble protein after heating vs DMSO (PISA); higher = thermal stabilisation; K562 cells, 10 uM, 30 min; active = over 0.2 and 3.5 SD of the protein, either way, in both replicates (recomputed)
saracatinib = compound: CN1CCN(CCOc2cc(OC3CCOCC3)c3c(Nc4c(Cl)ccc5c4OCO5)ncnc3c2)CC1 [saracatinib]
Outline: (§1)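 K562 cells at 2×10^6 cells/mL were treated with 10 μM compound for 30 min. Aliquots were heated for 3 min across 48°C-58°C, pooled, and extracted in PBS with 0.5% NP-40 at 4°C; soluble protein was the supernatant after 21,000xg for 90 min. Soluble protein was quantified by TMTpro 16plex LC-MS/MS with channel sums equalised, and reported as log2 fold change in thermal stability against DMSO controls, with values from duplicates.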

sotrastaurin = compound: CN1CCN(c2nc(C3=C(c4c[nH]c5ccccc45)C(=O)NC3=O)c3ccccc3n2)CC1 [sotrastaurin]
Outline: as §1

alvocidib = compound: CN1CC[C@H](c2c(O)cc(O)c3c(=O)cc(-c4ccccc4Cl)oc23)[C@H](O)C1 [alvocidib]
Outline: as §1

Tubastatin A = compound: CN1CCc2c(c3ccccc3n2Cc2ccc(C(=O)NO)cc2)C1 [Tubastatin A]
Outline: as §1

[1] = compound: CNC(=O)C1=CC=CC=C1NC2=NC(=NC=C2Cl)NC3=C(C=C(C=C3)N4CCOCC4)OC
Outline: as §1

defactinib = compound: CNC(=O)c1ccc(Nc2ncc(C(F)(F)F)c(NCc3nccnc3N(C)S(C)(=O)=O)n2)cc1 [defactinib]
Outline: as §1

rucaparib = compound: CNCc1ccc(-c2[nH]c3cc(F)cc4c3c2CCNC4=O)cc1 [rucaparib]
Outline: as §1

[2] = compound: CNc1nc(-c2ccc3c(N)n[nH]c3c2)cc(N2C[C@@H](C(=O)NC3CCCCC3)CC[C@H]2C)n1
Outline: as §1

encorafenib = compound: COC(=O)N[C@@H](C)CNc1nccc(-c2cn(C(C)C)nc2-c2cc(Cl)cc(NS(C)(=O)=O)c2F)n1 [encorafenib]
Outline: as §1

[3] = compound: COC(=O)[C@H](CCSC)NC(=O)C1=C(C=C(C=C1)NC[C@H](CS)N)C2=CC=CC=C2
Outline: as §1

Target	log2 fold change (saracatinib)	log2 fold change (sotrastaurin)	log2 fold change (alvocidib)	log2 fold change (Tubastatin A)	log2 fold change [1]	log2 fold change (defactinib)	log2 fold change (rucaparib)	log2 fold change [2]	log2 fold change (encorafenib)	log2 fold change [3]
CCDC25 (UniProt Q86WR0)	inactive: -0.02	inactive: -0.069	inactive: -0.118	inactive: 0.036	inactive: -0.031	inactive: -0.076	inactive: 0.049	inactive: 0.101	inactive: 0.01	inactive: -0.027
CBFB isoform 2 (UniProt Q13951)	inactive: 0.003	inactive: -0.112	inactive: -0.073	inactive: -0.007	inactive: 0.041	inactive: -0.064	inactive: 0.051	inactive: -0.066	inactive: -0.043	inactive: -0.014
CD58 (UniProt P19256)	inactive: 0.01	inactive: 0.067	inactive: -0.012	inactive: -0.117	inactive: -0.033	inactive: 0.011	inactive: 0.012	inactive: 0.023	inactive: -0.006	inactive: 0.023
CASC3 (UniProt O15234)	inactive: -0.015	inactive: 0.067	active: 0.6	inactive: -0.06	inactive: 0.021	inactive: 0.323	inactive: 0.158	inactive: -0.126	inactive: -0.089	inactive: 0.073
CCT5 (UniProt P48643)	inactive: 0.036	inactive: -0.007	inactive: -0.007	inactive: -0.034	inactive: -0.026	inactive: -0.01	inactive: -0.096	inactive: -0.002	inactive: 0.046	inactive: 0.006
CDC37 (UniProt Q16543)	inactive: -0.018	inactive: -0.015	inactive: -0.097	inactive: -0.002	inactive: 0.012	inactive: -0.003	inactive: -0.073	inactive: -0.019	inactive: -0.01	inactive: -0.003
CBR4 (UniProt Q8N4T8)	inactive: -0.018	inactive: -0.01	inactive: -0.008	inactive: -0.004	inactive: -0.016	inactive: 0.011	inactive: 0.054	inactive: -0.071	inactive: -0.012	inactive: -0.009
CCT4 (UniProt P50991)	inactive: 0.009	inactive: -0.026	inactive: 0.015	inactive: -0.025	inactive: -0.033	inactive: 0	inactive: -0.053	inactive: 0.009	inactive: 0.042	inactive: -0.002
CC2D1A (UniProt Q6P1N0)	inactive: -0.046	inactive: -0.027	inactive: -0.047	inactive: 0.015	inactive: -0.028	inactive: -0.06	inactive: 0.113	inactive: 0.08	inactive: 0.021	inactive: -0.087
CCDC12 (UniProt Q8WUD4)	inactive: -0.024	inactive: 0.007	inactive: 0.056	inactive: -0.009	inactive: -0.048	inactive: -0.019	inactive: 0.002	inactive: -0.012	inactive: -0.046	inactive: 0.065
CCDC51 (UniProt Q96ER9)	inactive: 0.049	inactive: -0.079	inactive: -0.069	inactive: -0.02	inactive: 0.082	inactive: -0.06	inactive: -0.011	inactive: -0.018	inactive: -0.008	inactive: -0.001
CARS isoform 3 (UniProt P49589)	inactive: -0.023	inactive: 0.039	inactive: -0.009	inactive: -0.027	inactive: -0.017	inactive: -0.018	inactive: -0.06	inactive: 0	inactive: 0.004	inactive: 0.01
CCT7 (UniProt Q99832)	inactive: 0.059	inactive: -0.015	inactive: 0.004	inactive: -0.025	inactive: -0.006	inactive: 0.006	inactive: -0.038	inactive: 0.005	inactive: 0.02	inactive: 0.003
CBX3 (UniProt Q13185)	inactive: -0.017	inactive: 0.087	inactive: -0.074	inactive: -0.031	inactive: 0.084	inactive: -0.11	inactive: -0.125	inactive: -0.023	inactive: 0.093	inactive: -0.001
CCDC22 (UniProt O60826)	inactive: -0.096	inactive: -0.102	inactive: -0.025	inactive: 0.043	inactive: 0.013	inactive: 0.02	inactive: 0.09	inactive: 0.019	inactive: -0.002	inactive: 0.02
CCDC93 (UniProt Q567U6)	inactive: -0.068	inactive: -0.064	inactive: 0.005	inactive: 0.045	inactive: -0.034	inactive: 0.001	inactive: 0.074	inactive: 0.097	inactive: -0.004	inactive: 0.026
CAST isoform 6 (UniProt P20810)	inactive: 0	inactive: 0.069	inactive: 0.031	inactive: -0.006	inactive: -0.039	inactive: -0.011	inactive: 0.02	inactive: -0.054	inactive: -0.037	inactive: 0.032
CCDC28A (UniProt Q8IWP9)	inactive: 0.007	inactive: 0.054	inactive: 0.024	inactive: 0.117	inactive: 0.056	inactive: -0.347	inactive: 0.031	inactive: 0.018	inactive: 0.098	inactive: 0.073
CDC40 (UniProt O60508)	inactive: -0.01	inactive: -0.054	inactive: 0.667	inactive: 0.016	inactive: -0.123	inactive: 0.547	inactive: 0.31	inactive: -0.047	inactive: -0.068	inactive: -0.048
CBLB (UniProt Q13191)	inactive: -0.023	inactive: -0.099	inactive: -0.052	inactive: -0.018	inactive: 0.046	inactive: 0.086	inactive: -0.007	inactive: -0.161	inactive: 0.004	inactive: -0.061
CAVIN2 (UniProt O95810)	inactive: -0.034	inactive: -0.037	inactive: 0.059	inactive: 0.044	inactive: -0.037	inactive: 0.158	inactive: 0.064	inactive: 0.08	inactive: 0.071	inactive: -0.01
CCT6A (UniProt P40227)	inactive: 0.008	inactive: 0.022	inactive: 0.009	inactive: -0.009	inactive: -0.028	inactive: 0.007	inactive: -0.02	inactive: 0	inactive: 0.007	inactive: 0.003
CCDC50 (UniProt Q8IVM0)	inactive: -0.026	inactive: 0.071	inactive: 0.023	inactive: -0.011	inactive: -0.02	inactive: 0.036	inactive: -0.031	inactive: -0.03	inactive: -0.024	inactive: 0.018
CCSMST1 (UniProt Q4G0I0)	inactive: 0.079	inactive: 0.007	inactive: -0.002	inactive: 0.074	inactive: 0.011	inactive: 0	inactive: 0.054	inactive: -0.064	inactive: -0.056	inactive: 0.027
CBL (UniProt P22681)	inactive: -0.02	inactive: 0.014	inactive: -0.076	inactive: -0.01	inactive: -0.021	inactive: -0.017	inactive: -0.011	inactive: -0.031	inactive: -0.017	inactive: 0.017
CCDC58 (UniProt Q4VC31)	inactive: 0.011	inactive: 0.06	inactive: 0.023	inactive: -0.029	inactive: 0.051	inactive: 0.017	inactive: -0.03	inactive: -0.026	inactive: -0.076	inactive: 0.07
CCDC115 (UniProt Q96NT0)	inactive: 0.089	inactive: 0.01	inactive: -0.013	inactive: 0.007	inactive: 0	inactive: -0.047	inactive: -0.004	inactive: 0.032	inactive: -0.021	inactive: -0.001
CCNA2 (UniProt P20248)	inactive: 0.073	inactive: -0.013	inactive: -0.003	inactive: 0	inactive: -0.085	inactive: -0.059	inactive: -0.056	inactive: -0.009	inactive: 0.024	inactive: 0.019
CARNMT1 (UniProt Q8N4J0)	inactive: 0.052	inactive: 0.043	inactive: -0.005	inactive: -0.056	inactive: 0.043	inactive: -0.052	inactive: -0.035	inactive: -0.022	inactive: 0.004	inactive: -0.052

Record cards (already shown). Values in the order: log2 fold change (saracatinib) | log2 fold change (sotrastaurin) | log2 fold change (alvocidib) | log2 fold change (Tubastatin A) | log2 fold change [1] | log2 fold change (defactinib) | log2 fold change (rucaparib) | log2 fold change [2] | log2 fold change (encorafenib) | log2 fold change [3]
CCT6A (UniProt P40227) is listed with inactive: 0.008 | inactive: 0.022 | inactive: 0.009 | inactive: -0.009 | inactive: -0.028 | inactive: 0.007 | inactive: -0.02 | inactive: 0 | inactive: 0.007 | inactive: 0.003
CCT4 (UniProt P50991) is listed with inactive: 0.009 | inactive: -0.026 | inactive: 0.015 | inactive: -0.025 | inactive: -0.033 | inactive: 0 | inactive: -0.053 | inactive: 0.009 | inactive: 0.042 | inactive: -0.002
